From patent US20240140995A1
These are yes or no findings as the source states them, for the method shown. Some entries that bind do so weakly or less than the wild type.

Protein sequences, listed by entry. Tags and fused reporters are not part of them. Residues count along the entry.
UniProt Q03708: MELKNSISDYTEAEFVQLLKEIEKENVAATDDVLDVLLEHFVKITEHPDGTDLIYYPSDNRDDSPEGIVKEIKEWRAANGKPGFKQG
UniProt Q47112, residues 444-576: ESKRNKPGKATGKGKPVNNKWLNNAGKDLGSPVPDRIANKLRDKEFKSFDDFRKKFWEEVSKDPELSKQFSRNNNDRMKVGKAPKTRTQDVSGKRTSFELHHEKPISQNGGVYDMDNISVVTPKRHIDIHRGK

Columns and labels:
[1] = target: E. coli IM-7, singly biotinylated (E. coli) (UniProt Q03708); assay: SPR (Biacore T200), 37 C, single cycle kinetics; […]
E. coli ColE-7 (E. coli) = E. coli ColE-7 (E. coli) (UniProt Q47112); assay: SPR Biacore T200, 37 C, single cycle kinetics

Row | Substance | binding [1] | binding (E. coli ColE-7 (E. coli))
1 | E. coli ColE-7 (from UniProt Q47112 444-576) | binds | –
2 | E. coli IM-7, singly biotinylated (from UniProt Q03708 1-87) | – | binds
